# According to PubChem BioAssay AID540256 (National Center for Advancing Translational Sciences (NCATS), 2011):
# Screen size: about 300,000 compounds; about 3,700 (1.2%) were called active. The shares of active, inactive and inconclusive entries below differ from those in the screen. Calls follow the shape of the full dose curve; tested in HEK293 cells. Potencies beside an inconclusive call are fits to weak or partial responses and may not hold up. Where a SMILES comes first, the peptide text is derived from it. [ ]: non-standard residue; d: D form. The star is where a group is joined. ξ: configuration not given here. ξY = NC(Cc1ccc(O)cc1)C(=O)O; Cbz = O=C(OCc1ccccc1)*; OtBu = CC(C)(C)O*; tBu = CC(C)(C)*
# Assay: qHTS for Inhibitors of binding or entry into cells for Lassa Virus; also: nearly all actives have a fitted effect of over 50% in size
# Settings: Lassa virus pseudotype entry inhibition, cell reporter; activity change, negative = inhibition: at 37.9 µM (top of the series) unless noted
# % is scaled to controls: 0 for no effect and ±100 for the full control effect; potency is read from the fitted curve at half-maximal effect.
Compound,Potency,"activity change, negative = inhibition"
COCC(C)NC(=O)c1noc2c1CCc1cc(OC)ccc1-2 (stereo not drawn),inactive,–
CC(=O)N1CCN(c2ccc([N+](=O)[O-])cc2C=C2C(=O)NC(=O)NC2=O)CC1,"inconclusive: 11.2 µM [activator, partial curve, poor fit]",–
COc1cc([N+](=O)[O-])ccc1NC(=O)Cc1ccc(F)cc1,inactive,–
Cc1ccc(NC(=O)CSc2nnc(Cc3cccn3C)n2-c2ccc(F)cc2)cc1,inactive,–
COc1ccc(CNC(=O)COC(=O)c2n[nH]c3ccccc23)cc1,"inconclusive: 1.41 µM [inhibitor, full curve, poor fit]",–
Cc1cc([N+](=O)[O-])ccc1NCc1ccccc1,"inconclusive: 0.206 µM [inhibitor, partial curve, poor fit]",–
CCOC(=O)N1CCN(c2ccc(S(=O)(=O)N3CCOCC3)cc2[N+](=O)[O-])CC1,inactive,–
COc1cccc(C2=CC(c3cccc(OC)c3OC(F)F)n3nnnc3N2)c1 (stereo not drawn),inactive,–
COc1ccc(C(C[N+](=O)[O-])C2(c3ccc(OC)c(OC)c3)C(=O)c3ccccc3C2=O)cc1 (stereo not drawn),active: 15.8 µM,–
Cn1cc(/C=C(\NC(=O)c2ccccc2Cl)C(=O)NCCCn2ccnc2)c2ccccc21,inactive,–
O=C(CCCCCN1C(=O)c2ccccc2C1=O)Nc1ccc2c(c1)OCCO2,"inconclusive: 3.55 µM [activator, single point]",–
O=C(C1CC1)N1CCc2cc(S(=O)(=O)N(CCO)Cc3ccccc3)ccc21,"inconclusive: 3.16 µM [activator, partial curve, poor fit]",–
COCCN1C(=O)c2[nH]nc(-c3ccccc3O)c2C1c1ccc(OC)cc1 (stereo not drawn),"inconclusive: 3.98 µM [inhibitor, full curve, poor fit]",–
COc1cccc(COc2cc(-n3cnc4ccccc43)sc2C(N)=O)c1,active: 4.99 µM,–
CC(=O)Nc1cccc2ncccc12,inactive,–
CCN(CC(=O)Nc1c(F)cccc1F)C(=O)CSCC(=O)Nc1ccc(OC)cc1,inactive,–
Cn1nnnc1SCC(=O)Nc1ncc(Cl)cc1Cl,inactive,–
CCc1ccc(N2CC(C(=O)Nc3ccc(F)cc3)CC2=O)cc1 (stereo not drawn),inactive,–
CCOC(=O)c1nn(-c2ccccc2)c(C#N)c1NC(=O)c1nn(CC)cc1Br,"inconclusive: 29.1 µM [inhibitor, single point]",–
CC(=O)c1ccc(NC(=O)CSc2nnc(-c3ccncc3)n2-c2ccccc2)cc1,inactive,–
COc1cccc(OC)c1C(=O)NC(=S)N1CCN(c2ccc(C(F)(F)F)cc2[N+](=O)[O-])CC1,"inconclusive: 35.5 µM [inhibitor, single point]",–
CCC(=O)c1ccccc1OCCCN1CCC(Cc2ccccc2)CC1,"inconclusive: 35.5 µM [inhibitor, single point]",–

Compound,Potency,"activity change, negative = inhibition"
COc1ccc([C@H]2C[C@H](O)[C@@H](n3cc(-c4ccc(F)cc4)nn3)CN2C(=O)c2cccs2)cc1,inactive,–
COc1ccc(OC)c(CNS(=O)(=O)c2cc(-c3onc(C)c3C)ccc2C)c1,inactive,–
Cc1ccc(-c2nc(CSc3nc4ccccc4c(=O)n3CCO)cs2)cc1,"inconclusive: 35.5 µM [inhibitor, single point]",–
CN(C)CCC(c1ccc(Br)cc1)c1ccccn1 (stereo not drawn),"inconclusive: 20.6 µM [activator, single point]",–
CCN1CCN(CCCNC(=O)c2cc3c(=O)[nH]c4ccccc4c3s2)CC1,"inconclusive: 18.3 µM [inhibitor, partial curve]",–
O=C(N/N=C/c1cc(Br)c(O)c(Br)c1)c1cccc(C(F)(F)F)c1,inactive,–
COc1ccc2c(c1)CCN(C(=O)CCl)C2C1C(=O)CCCC1=O (stereo not drawn),"inconclusive: 0.291 µM [activator, partial curve, poor fit]",–
COc1ccc(CNc2oc(COc3ccc(Cl)cc3)nc2C#N)cc1,inactive,–
COc1ccc(CCNC(=O)c2cnn(-c3cccc(C)c3)c2C2CCNCC2)cc1OC,"inconclusive: 35.5 µM [activator, single point]",–
O=C(CSc1nnc(CN2CCCCC2)n1-c1ccccc1)c1ccc2c(c1)OCO2,"inconclusive: 1.41 µM [inhibitor, full curve, poor fit]",–
COc1ccccc1C(=O)NCC(=O)N/N=C/c1ccc2c(c1)OCO2,"inconclusive: 10 µM [inhibitor, partial curve, poor fit]",–
CC(C)Oc1ccc(CNC(=O)CN2C(=O)c3cccnc3Oc3ccc(Cl)cc32)cc1,"inconclusive: 3.55 µM [inhibitor, partial curve, poor fit]",–
CCOC(=O)N1CCC(N(C(=O)Nc2ccc(Cl)c(Cl)c2)C(C)CC)CC1 (stereo not drawn),"inconclusive: 20.6 µM [inhibitor, single point]",–
CN(C)c1ccc(NS(=O)(=O)c2ccc(-c3csnn3)cc2)cc1,"inconclusive: 14.1 µM [inhibitor, partial curve, poor fit]",–
CC(NC(=O)/C(C#N)=C/c1ccc(Cl)c([N+](=O)[O-])c1)c1ccccc1 (stereo not drawn),"inconclusive: 29.1 µM [inhibitor, single point]",–
O=c1c2sc3ccccc3c2n(Cc2cccc(C(F)(F)F)c2)c(=O)n1-c1ccccc1,"inconclusive: 10 µM [inhibitor, partial curve, poor fit]",–
CC(C)(C)OC(=O)C(Cc1ccc(OC(C)(C)C)cc1)NC(=O)CNC(=O)OCc1ccccc1 (stereo not drawn) (Cbz-Gly-[ξY](tBu)-OtBu),"inconclusive: 2.06 µM [inhibitor, full curve, poor fit]",–
NC(=O)c1c(Br)n(C2OC(CO)C(O)C2O)c2ncnc(N)c12 (stereo not drawn),"inconclusive: 10 µM [inhibitor, partial curve, poor fit]",–
Cc1ccc2nc(N(CCN(C)C)C(=O)c3cc(Cl)sc3Cl)sc2c1,–,inconclusive: 7.81% [activator]
Cc1ccn2c(=O)cc(COc3ccc(NC(=O)C(C)(C)C)cc3)nc2c1,inactive,–
Cc1cccc(-n2cnc(C(=O)Nc3cccnc3)c2)n1,"inconclusive: 14.1 µM [inhibitor, single point]",–

# By substructure, those above with a cyano group (3)
Compound,Potency,"activity change, negative = inhibition"
CCOC(=O)c1nn(-c2ccccc2)c(C#N)c1NC(=O)c1nn(CC)cc1Br,"inconclusive: 29.1 µM [inhibitor, single point]",–
COc1ccc(CNc2oc(COc3ccc(Cl)cc3)nc2C#N)cc1,inactive,–
CC(NC(=O)/C(C#N)=C/c1ccc(Cl)c([N+](=O)[O-])c1)c1ccccc1 (stereo not drawn),"inconclusive: 29.1 µM [inhibitor, single point]",–
